Assay results: US20100249172A1, “9-CHLORO NOSCAPINE AND ITS USE IN TREATING CANCERS, INCLUDING DRUG-RESISTANT CANCERS” (EMORY UNIVERSITY, priority 2007, published 2010)
For at least one compound, name, drawing or mass did not settle the structure.

Tested on: MCF-7 cells
Assay: Cell cycle analysis by flow cytometry (propidium iodide)
Format: cell-based, human
Conditions: 25 μM, 72 h, mean ± S.E.M.
Protocol: The flow cytometric evaluation of the cell cycle status was performed as described previously. Briefly, 2×10^6 cells were centrifuged, washed twice with ice-cold PBS, and fixed in 70% ethanol. Tubes containing the cell pellets were stored at 4° C. for at least 24 hours. Cells were then centrifuged at 1000×g for 10 min and the supernatant was discarded. The pellets were washed twice with 5 ml of PBS and then stained with 0.5 ml of propidium iodide (0.1% in 0.6% Triton-X in PBS) and 0.5 ml of RNase A (2 mg/ml) for 45 minutes in dark. Samples were then analyzed on a FACSCalibur flow cytometer (Beckman Coulter Inc., Fullerton, Calif.).
To investigate the precise mechanisms of cell death, the effect of 9-cloro-noscapine and other halogenated noscapine analogs on percent G2/M cells (mitotic index) and percent sub-G1 cells (apoptotic index) was examined as a function of dose and time in MCF-7 cells using fluorescence activated cell sorting (FACS) analysis. The effect of all compounds including noscapine was evaluated at three doses-5 μM, 10 μM and 25 μM for 0, 24, 48 and 72 hours of drug treatment. […] Fluorescently labeled DNA is a good indicator of cell cycle progression and cell death. An unreplicated complement of diploid (2N) DNA cells represents the G1 phase while duplicated tetraploid (4N) DNA cells represent G2 and M phases. […]

## COc1ccc2c(c1OC)C(=O)O[C@@H]2[C@H]1c2c(c(Br)c3c(c2OC)OCO3)CCN1C [9-Br-nos]
  Sub-G1 %: 49 6 ± 2.7%
